Results published in PubChem BioAssay.
The other results are listed elsewhere or left out. The main result of the screen is listed elsewhere. These columns were measured beside it and carry no call. For part of these data: The list favours compounds with an active or inconclusive main result. Peptide text beside a SMILES is read from it. * marks the point of attachment. For = O=C*

Tests used:
PubChem AID 1586 = details: yeast two-hybrid polyglutamine protein interaction, reporter readout; measured here: averaged growth delta OD
[1] = enhancers of SMN2 over SMN1 splicing, cell-based, SMN2/SMN1 luciferase reporters (AID 1598); details: SMN2 vs SMN1 luciferase splicing reporter cells, at 10 µM; SMN1 luciferase ratio: measured here: SMN1 luciferase reporter average; SMN2 luciferase ratio: measured here: SMN2 luciferase reporter average, stronger effect = higher value
[2] = protection against mutant huntingtin cytotoxicity, PC12 cells, LDH release (AID 1610); details: PC12 mutant huntingtin toxicity, final LDH at 4 uM, stronger effect = lower value

SMILES: NS(=O)(=O)c1cc2c(cc1Cl)NCNS2(=O)=O
- signal change (36 h minus 0 h) (PubChem AID 1586): 0.129
- SMN1 luciferase ratio [1]: 0.85
- SMN2 luciferase ratio [1]: 0.93
- normalised LDH release [2]: 1.06

SMILES: CN1C2CCC1CC(OC(=O)C(CO)c1ccccc1)C2 (centres undefined)
- signal change (36 h minus 0 h) (PubChem AID 1586): 0.0806
- SMN1 luciferase ratio [1]: 0.86
- SMN2 luciferase ratio [1]: 0.88
- normalised LDH release [2]: 1.35

SMILES: CN1CCN(C(c2ccccc2)c2ccc(Cl)cc2)CC1 (centres undefined)
- signal change (36 h minus 0 h) (PubChem AID 1586): 0.19
- SMN1 luciferase ratio [1]: 0.87
- SMN2 luciferase ratio [1]: 0.99
- normalised LDH release [2]: 1.24

SMILES: N[C@@H](CCC(=O)N[C@@H](CS)C(=O)NCC(=O)O)C(=O)O
- signal change (36 h minus 0 h) (PubChem AID 1586): 0.133
- SMN1 luciferase ratio [1]: 0.92
- SMN2 luciferase ratio [1]: 0.92
- normalised LDH release [2]: 0.436

SMILES: NC(=O)c1ncn([C@@H]2O[C@H](CO)[C@@H](O)[C@H]2O)c1O
- signal change (36 h minus 0 h) (PubChem AID 1586): 0.0461
- SMN1 luciferase ratio [1]: 1.04
- SMN2 luciferase ratio [1]: 0.92
- normalised LDH release [2]: 1.19

SMILES: CCOc1ccc(Cc2nccc3cc(OCC)c(OCC)cc23)cc1OCC
- signal change (36 h minus 0 h) (PubChem AID 1586): 0.198
- SMN1 luciferase ratio [1]: 1.24
- SMN2 luciferase ratio [1]: 0.88
- normalised LDH release [2]: 0.872

SMILES: CSCCC(NC=O)C(=O)NC(Cc1ccccc1)C(=O)O (stereo not drawn) (For-Met-Phe-OH; configuration not given here)
- signal change (36 h minus 0 h) (PubChem AID 1586): 0.221
- SMN1 luciferase ratio [1]: 0.92
- SMN2 luciferase ratio [1]: 1
- normalised LDH release [2]: 1.4

SMILES: CCCCNC(=O)NS(=O)(=O)c1ccc(C)cc1
- signal change (36 h minus 0 h) (PubChem AID 1586): 0.16
- SMN1 luciferase ratio [1]: 0.94
- SMN2 luciferase ratio [1]: 0.92
- normalised LDH release [2]: 1.02

SMILES: COc1ccc(-c2cc(=O)c3c(O)cc(O[C@@H]4O[C@H](CO[C@H]5O[C@H](C)[C@@H](O)[C@H](O)[C@@H]5O)[C@@H](O)[C@H](O)[C@H]4O)cc3o2)cc1O
- signal change (36 h minus 0 h) (PubChem AID 1586): 0.265
- SMN1 luciferase ratio [1]: 0.97
- SMN2 luciferase ratio [1]: 0.9
- normalised LDH release [2]: 0.887

SMILES: C=CCc1ccccc1OCC(O)CNC(C)C (centres undefined)
- signal change (36 h minus 0 h) (PubChem AID 1586): 0.122
- SMN1 luciferase ratio [1]: 0.8
- SMN2 luciferase ratio [1]: 0.83
- normalised LDH release [2]: 0.311

SMILES: C[C@]12CCC3c4ccc(O)cc4CCC3C1CC[C@@H]2O (some centres undefined)
- signal change (36 h minus 0 h) (PubChem AID 1586): 0.0328
- SMN1 luciferase ratio [1]: 0.89
- SMN2 luciferase ratio [1]: 0.83
- normalised LDH release [2]: 0.436

SMILES: CN(C)CCN(Cc1ccccc1)c1ccccn1
- signal change (36 h minus 0 h) (PubChem AID 1586): 0.234
- SMN1 luciferase ratio [1]: 0.81
- SMN2 luciferase ratio [1]: 0.91
- normalised LDH release [2]: 0.175

SMILES: COc1ccccc1OCC(O)CO (centres undefined)
- signal change (36 h minus 0 h) (PubChem AID 1586): 0.165
- SMN1 luciferase ratio [1]: 0.89
- SMN2 luciferase ratio [1]: 0.88
- normalised LDH release [2]: 0.884

SMILES: CCCCCCCCCCCCC[N+](C)(C)Cc1ccccc1
- signal change (36 h minus 0 h) (PubChem AID 1586): 0.129
- SMN1 luciferase ratio [1]: 0.32
- SMN2 luciferase ratio [1]: 0.37
- normalised LDH release [2]: 0.616

SMILES: CCOC(=O)[C@H](CCc1ccccc1)N[C@@H](C)C(=O)N1CCC[C@H]1C(=O)O
- signal change (36 h minus 0 h) (PubChem AID 1586): 0.184
- SMN1 luciferase ratio [1]: 0.8
- SMN2 luciferase ratio [1]: 0.85
- normalised LDH release [2]: 0.791

SMILES: NC(Cc1ccc(F)cc1)C(=O)O (centres undefined)
- signal change (36 h minus 0 h) (PubChem AID 1586): 0.167
- SMN1 luciferase ratio [1]: 0.88
- SMN2 luciferase ratio [1]: 0.86
- normalised LDH release [2]: 0.924

SMILES: Cc1onc(-c2ccccc2Cl)c1C(=O)N[C@@H]1C(=O)N2[C@@H]1SC(C)(C)[C@@H]2C(=O)O
- signal change (36 h minus 0 h) (PubChem AID 1586): 0.0702
- SMN1 luciferase ratio [1]: 0.87
- SMN2 luciferase ratio [1]: 0.93
- normalised LDH release [2]: 0.992

SMILES: NS(=O)(=O)c1cc2c(cc1Cl)NC(CSCc1ccccc1)=NS2(=O)=O
- signal change (36 h minus 0 h) (PubChem AID 1586): 0.138
- SMN1 luciferase ratio [1]: 0.9
- SMN2 luciferase ratio [1]: 0.92
- normalised LDH release [2]: 1.03

SMILES: CCN(CC)CCNC(=O)c1ccc(N)cc1
- signal change (36 h minus 0 h) (PubChem AID 1586): 0.121
- SMN1 luciferase ratio [1]: 0.98
- SMN2 luciferase ratio [1]: 0.95
- normalised LDH release [2]: 0.973

SMILES: CN(C)c1nc(N(C)C)nc(N(C)C)n1
- signal change (36 h minus 0 h) (PubChem AID 1586): 0.105
- SMN1 luciferase ratio [1]: 0.87
- SMN2 luciferase ratio [1]: 0.84
- normalised LDH release [2]: 0.807

SMILES: NC(=O)c1ccc([N+](=O)[O-])cc1Cl
- signal change (36 h minus 0 h) (PubChem AID 1586): 0.238
- SMN1 luciferase ratio [1]: 0.97
- SMN2 luciferase ratio [1]: 0.94
- normalised LDH release [2]: 0.951

SMILES: NC[C@H]1O[C@H](O[C@H]2C(O[C@@H]3O[C@H](CO)[C@@H](O)[C@H]3O)[C@@H](O)[C@H](N)C[C@@H]2N)[C@H](N)[C@@H](O)[C@@H]1O (some centres undefined)
- signal change (36 h minus 0 h) (PubChem AID 1586): 0.036
- SMN1 luciferase ratio [1]: 0.92
- SMN2 luciferase ratio [1]: 0.84
- normalised LDH release [2]: 1.26

SMILES: CC1(C)C2CC[C@]3(C)C(C(=O)C=C4[C@@H]5C[C@@](C)(C(=O)O)CC[C@]5(C)CC[C@]43C)[C@@]2(C)CC[C@@H]1OC(=O)CCC(=O)O (some centres undefined)
- signal change (36 h minus 0 h) (PubChem AID 1586): 0.0255
- SMN1 luciferase ratio [1]: 0.36
- SMN2 luciferase ratio [1]: 0.42
- normalised LDH release [2]: 1.02

SMILES: CC1=C(C(=O)O)N2C(=O)[C@@H](NC(=O)[C@H](N)c3ccc(O)cc3)[C@H]2SC1
- signal change (36 h minus 0 h) (PubChem AID 1586): 0.164
- SMN1 luciferase ratio [1]: 0.84
- SMN2 luciferase ratio [1]: 0.93
- normalised LDH release [2]: 0.574

SMILES: CC1CCC(NC(=O)N(CCCl)N=O)CC1 (centres undefined)
- signal change (36 h minus 0 h) (PubChem AID 1586): 0.246
- SMN1 luciferase ratio [1]: 0.94
- SMN2 luciferase ratio [1]: 0.97
- normalised LDH release [2]: 0.677

SMILES: Nc1c2c(nc3ccccc13)CCCC2O (centres undefined)
- signal change (36 h minus 0 h) (PubChem AID 1586): 0.189
- SMN1 luciferase ratio [1]: 0.97
- SMN2 luciferase ratio [1]: 1.02
- normalised LDH release [2]: 0.967

SMILES: Cc1oncc1C(=O)Nc1ccc(C(F)(F)F)cc1
- signal change (36 h minus 0 h) (PubChem AID 1586): 0.0303
- SMN1 luciferase ratio [1]: 1.82
- SMN2 luciferase ratio [1]: 1.75
- normalised LDH release [2]: 1.47

SMILES: CN(C)CC/C=C1\c2ccccc2Sc2ccc(Cl)cc21
- signal change (36 h minus 0 h) (PubChem AID 1586): 0.102
- SMN1 luciferase ratio [1]: 0.83
- SMN2 luciferase ratio [1]: 1
- normalised LDH release [2]: 0.879

SMILES: CCN(CC)CCNC(=O)c1cc(Br)c(N)cc1OC
- signal change (36 h minus 0 h) (PubChem AID 1586): 0.0644
- SMN1 luciferase ratio [1]: 0.9
- SMN2 luciferase ratio [1]: 0.84
- normalised LDH release [2]: 0.994

SMILES: COc1ccccc1OCC(O)COC(N)=O (centres undefined)
- signal change (36 h minus 0 h) (PubChem AID 1586): 0.0658
- SMN1 luciferase ratio [1]: 0.36
- SMN2 luciferase ratio [1]: 0.36
- normalised LDH release [2]: 0.94

SMILES: CC(=O)Nc1nnc(S(N)(=O)=O)s1
- signal change (36 h minus 0 h) (PubChem AID 1586): 0.118
- SMN1 luciferase ratio [1]: 1.02
- SMN2 luciferase ratio [1]: 0.89
- normalised LDH release [2]: 0.984

SMILES: CCN1CCN(C(=O)NC(C(=O)N[C@@H]2C(=O)N3[C@@H]2SC(C)(C)[C@@H]3C(=O)O)c2ccccc2)C(=O)C1=O (some centres undefined)
- signal change (36 h minus 0 h) (PubChem AID 1586): -0.00855
- SMN1 luciferase ratio [1]: 0.91
- SMN2 luciferase ratio [1]: 0.91
- normalised LDH release [2]: 0.587

SMILES: NC(N)=NCCN1CCCCCCC1
- signal change (36 h minus 0 h) (PubChem AID 1586): 0.112
- SMN1 luciferase ratio [1]: 0.88
- SMN2 luciferase ratio [1]: 1.1
- normalised LDH release [2]: 0.695

SMILES: CCCCN1CCCCC1C(=O)Nc1c(C)cccc1C (centres undefined)
- signal change (36 h minus 0 h) (PubChem AID 1586): 0.0696
- SMN1 luciferase ratio [1]: 0.87
- SMN2 luciferase ratio [1]: 0.81
- normalised LDH release [2]: 0.958

SMILES: Cc1cc(-c2ccccc2)nnc1NCCN1CCOCC1
- signal change (36 h minus 0 h) (PubChem AID 1586): 0.0742
- SMN1 luciferase ratio [1]: 0.83
- SMN2 luciferase ratio [1]: 0.92
- normalised LDH release [2]: 0.708

SMILES: C[C@@H]1CC2C3CCC4=CC(=O)C=C[C@]4(C)[C@@]3(F)[C@@H](O)C[C@]2(C)[C@@]1(O)C(=O)COP(=O)(O)O (some centres undefined)
- signal change (36 h minus 0 h) (PubChem AID 1586): 0.0926
- SMN1 luciferase ratio [1]: 0.89
- SMN2 luciferase ratio [1]: 0.93
- normalised LDH release [2]: 0.96
